These are yes or no findings as the source states them, for the method shown. Some entries that bind do so weakly or less than the wild type.
Molecular target: GDF7 (UniProt Q7Z4P5)
Test: phage display selection on immobilized GDF-7, phage ELISA; phage-displayed peptide

By UniProt entry, the sequences of proteins in these tests, tags left out. Residues count along the entry.
UniProt Q7Z4P5, residues 322-450: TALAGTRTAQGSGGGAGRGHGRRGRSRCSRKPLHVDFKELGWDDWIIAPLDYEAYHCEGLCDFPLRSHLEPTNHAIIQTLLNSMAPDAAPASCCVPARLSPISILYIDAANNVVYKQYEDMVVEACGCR

Binder | binding
SSWEETGWRDFNSLRGREVSR [SEQ ID NO 4] | binds
SREAHVGWGVFEALQGVTVSR [SEQ ID NO 5] | binds
SSVGWDEFMSLRGVEKKGWSR [SEQ ID NO 6] | binds
SSPSWDQFQSLVGVPTWAASR [SEQ ID NO 7] | binds
SSGLLGGWSGLQGVELWSSSR [SEQ ID NO 8] | binds
